{"source": "PubChem BioAssay AID1159508, Drosophila RNAi Screening Center – 2015", "test": "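Overall cell fitness after RNAi as a quality check of the library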", "cells": "Drosophila S2R+ cells", "reagents": "long dsRNA against Drosophila genes", "timing": "5 days", "detection": "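Luminescent ATP signal as a proxy for cell fitness after 5 days of RNAi, given as a z-score in each replicate and averaged over replicates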", "scale": "mean ATP z-score: higher = more total ATP luminescence", "active means": "In these data the active calls have mean ATP z-score at about -2 or lower, or at about 2 or higher", "calls": "active = strong ATP change (up or down); inactive = no strong ATP change", "note": "In all, the deposit lists 812 reagents; this is an unselected part. Of all reagents, 18 (2.2%) got an active call. 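Calls include both increased and decreased ATP; roughly one in four reagents has no third replicate value.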 Not all columns of the deposit are shown. The record does not give: the amount of reagent."}
{"target gene": "bru3 (bruno 3)", "amplicon": "DRSC42369", "mean ATP z-score": 1.46, "outcome": "inactive"}
{"target gene": "bru3 (bruno 3)", "amplicon": "DRSC42723", "mean ATP z-score": 0.479, "outcome": "inactive"}
{"target gene": "Pus10 (Pseudouridine synthase 10)", "amplicon": "DRSC00629", "mean ATP z-score": -0.348, "outcome": "inactive"}
{"target gene": "Pus10 (Pseudouridine synthase 10)", "amplicon": "DRSC42657", "mean ATP z-score": 0.156, "outcome": "inactive"}
{"target gene": "egl (egalitarian)", "amplicon": "DRSC04682", "mean ATP z-score": -0.109, "outcome": "inactive"}
{"target gene": "egl (egalitarian)", "amplicon": "DRSC23380", "mean ATP z-score": -0.383, "outcome": "inactive"}
{"target gene": "MAN1", "amplicon": "DRSC04342", "mean ATP z-score": 0.273, "outcome": "inactive"}
{"target gene": "MAN1", "amplicon": "DRSC42681", "mean ATP z-score": -0.666, "outcome": "inactive"}
{"target gene": "Hrb27C (Heterogeneous nuclear ribonucleoprotein at 27C)", "amplicon": "DRSC28323", "mean ATP z-score": -1.25, "outcome": "inactive"}
{"target gene": "Hrb27C (Heterogeneous nuclear ribonucleoprotein at 27C)", "amplicon": "DRSC32136", "mean ATP z-score": 0.339, "outcome": "inactive"}
{"target gene": "CG14628", "amplicon": "DRSC18626", "mean ATP z-score": 1.5, "outcome": "inactive"}
{"target gene": "CG14628", "amplicon": "DRSC42708", "mean ATP z-score": -0.403, "outcome": "inactive"}

Continued (3 carried over from the part before).
{"target gene": "Hrb27C (Heterogeneous nuclear ribonucleoprotein at 27C)", "amplicon": "DRSC32136", "mean ATP z-score": 0.339, "outcome": "inactive"}
{"target gene": "CG14628", "amplicon": "DRSC18626", "mean ATP z-score": 1.5, "outcome": "inactive"}
{"target gene": "CG14628", "amplicon": "DRSC42708", "mean ATP z-score": -0.403, "outcome": "inactive"}
{"target gene": "ytr (yantar)", "amplicon": "DRSC25408", "mean ATP z-score": -0.965, "outcome": "inactive"}
{"target gene": "ytr (yantar)", "amplicon": "DRSC40926", "mean ATP z-score": 0.436, "outcome": "inactive"}
{"target gene": "SF1 (Splicing factor 1)", "amplicon": "DRSC16844", "mean ATP z-score": 0.511, "outcome": "inactive"}
{"target gene": "SF1 (Splicing factor 1)", "amplicon": "DRSC36012", "mean ATP z-score": -0.0741, "outcome": "inactive"}
{"target gene": "U4-U6-60K (U4-U6 small nuclear riboprotein factor 60K)", "amplicon": "DRSC10624", "mean ATP z-score": -0.0653, "outcome": "inactive"}
{"target gene": "U4-U6-60K (U4-U6 small nuclear riboprotein factor 60K)", "amplicon": "DRSC42502", "mean ATP z-score": -1.03, "outcome": "inactive"}
{"target gene": "larp (La related protein)", "amplicon": "DRSC28325", "mean ATP z-score": -0.347, "outcome": "inactive"}
{"target gene": "larp (La related protein)", "amplicon": "DRSC34672", "mean ATP z-score": -1.18, "outcome": "inactive"}
{"target gene": "Csl4", "amplicon": "DRSC22664", "mean ATP z-score": 0.887, "outcome": "inactive"}
{"target gene": "Csl4", "amplicon": "DRSC42663", "mean ATP z-score": -0.903, "outcome": "inactive"}
{"target gene": "Trmt6 (tRNA methyltransferase 6 non-catalytic subunit)", "amplicon": "DRSC03272", "mean ATP z-score": -0.345, "outcome": "inactive"}
{"target gene": "Trmt6 (tRNA methyltransferase 6 non-catalytic subunit)", "amplicon": "DRSC42660", "mean ATP z-score": -0.329, "outcome": "inactive"}
{"target gene": "CG10948", "amplicon": "DRSC09806", "mean ATP z-score": 0.471, "outcome": "inactive"}
{"target gene": "CG10948", "amplicon": "DRSC39352", "mean ATP z-score": -0.333, "outcome": "inactive"}
{"target gene": "ncm (nucampholin)", "amplicon": "DRSC29504", "mean ATP z-score": -1.06, "outcome": "inactive"}
{"target gene": "ncm (nucampholin)", "amplicon": "DRSC31773", "mean ATP z-score": -0.267, "outcome": "inactive"}
{"target gene": "Rnmt (RNA guanine-7 methyltransferase)", "amplicon": "DRSC03558", "mean ATP z-score": 0.53, "outcome": "inactive"}
{"target gene": "Rnmt (RNA guanine-7 methyltransferase)", "amplicon": "DRSC42639", "mean ATP z-score": -0.615, "outcome": "inactive"}
{"target gene": "eRF1 (eukaryotic translation release factor 1)", "amplicon": "DRSC27974", "mean ATP z-score": 1.56, "outcome": "inactive"}
{"target gene": "eRF1 (eukaryotic translation release factor 1)", "amplicon": "DRSC32121", "mean ATP z-score": 0.192, "outcome": "inactive"}
